From the supplement of paper PMC10849652
The list shows a part of the results.

Chains of the proteins cited; added tags and fusions are not shown. Lines headed by an entry give the natural chain unless they say otherwise; changes in a name come on top.
UniProt Q96I25: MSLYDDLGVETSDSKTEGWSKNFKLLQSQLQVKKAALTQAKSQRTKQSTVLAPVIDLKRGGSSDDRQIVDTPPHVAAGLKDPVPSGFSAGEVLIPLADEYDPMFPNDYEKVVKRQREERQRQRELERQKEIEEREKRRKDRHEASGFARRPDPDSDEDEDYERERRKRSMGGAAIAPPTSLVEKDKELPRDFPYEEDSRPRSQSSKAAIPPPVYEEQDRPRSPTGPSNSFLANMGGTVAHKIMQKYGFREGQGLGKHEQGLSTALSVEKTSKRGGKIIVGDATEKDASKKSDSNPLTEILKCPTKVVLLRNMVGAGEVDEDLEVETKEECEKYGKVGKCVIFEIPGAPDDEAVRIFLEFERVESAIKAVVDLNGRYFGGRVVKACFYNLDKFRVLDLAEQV
UniProt Q5T8P6: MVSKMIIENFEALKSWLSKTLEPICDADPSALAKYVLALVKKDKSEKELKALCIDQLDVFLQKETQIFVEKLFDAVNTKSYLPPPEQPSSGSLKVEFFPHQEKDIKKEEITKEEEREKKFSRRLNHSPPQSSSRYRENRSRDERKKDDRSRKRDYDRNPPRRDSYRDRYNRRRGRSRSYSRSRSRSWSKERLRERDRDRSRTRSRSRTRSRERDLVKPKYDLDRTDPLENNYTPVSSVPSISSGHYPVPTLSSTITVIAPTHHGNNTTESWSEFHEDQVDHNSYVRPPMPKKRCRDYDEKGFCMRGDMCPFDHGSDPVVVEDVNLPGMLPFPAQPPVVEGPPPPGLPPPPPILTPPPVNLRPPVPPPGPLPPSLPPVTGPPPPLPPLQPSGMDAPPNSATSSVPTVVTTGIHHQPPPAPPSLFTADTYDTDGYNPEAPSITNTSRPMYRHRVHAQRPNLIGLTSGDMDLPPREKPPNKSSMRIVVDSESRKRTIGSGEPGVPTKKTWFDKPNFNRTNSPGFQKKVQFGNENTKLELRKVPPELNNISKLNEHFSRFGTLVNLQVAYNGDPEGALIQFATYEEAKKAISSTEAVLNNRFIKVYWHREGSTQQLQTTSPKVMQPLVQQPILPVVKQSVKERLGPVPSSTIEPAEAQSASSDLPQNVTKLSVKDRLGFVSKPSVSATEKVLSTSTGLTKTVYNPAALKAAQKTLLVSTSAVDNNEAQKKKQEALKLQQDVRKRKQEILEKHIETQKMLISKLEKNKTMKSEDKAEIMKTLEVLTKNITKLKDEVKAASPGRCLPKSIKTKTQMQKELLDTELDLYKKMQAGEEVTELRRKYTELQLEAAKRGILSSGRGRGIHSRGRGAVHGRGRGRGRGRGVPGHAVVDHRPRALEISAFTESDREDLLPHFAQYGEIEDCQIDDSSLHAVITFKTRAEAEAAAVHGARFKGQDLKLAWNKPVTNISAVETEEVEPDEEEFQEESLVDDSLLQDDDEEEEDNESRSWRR
UniProt P51148: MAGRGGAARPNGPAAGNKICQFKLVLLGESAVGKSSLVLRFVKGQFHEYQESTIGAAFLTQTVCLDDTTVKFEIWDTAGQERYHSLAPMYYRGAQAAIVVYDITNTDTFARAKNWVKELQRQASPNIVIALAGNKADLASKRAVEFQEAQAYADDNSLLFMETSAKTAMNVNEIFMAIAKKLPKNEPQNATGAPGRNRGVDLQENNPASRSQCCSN
UniProt Q15042: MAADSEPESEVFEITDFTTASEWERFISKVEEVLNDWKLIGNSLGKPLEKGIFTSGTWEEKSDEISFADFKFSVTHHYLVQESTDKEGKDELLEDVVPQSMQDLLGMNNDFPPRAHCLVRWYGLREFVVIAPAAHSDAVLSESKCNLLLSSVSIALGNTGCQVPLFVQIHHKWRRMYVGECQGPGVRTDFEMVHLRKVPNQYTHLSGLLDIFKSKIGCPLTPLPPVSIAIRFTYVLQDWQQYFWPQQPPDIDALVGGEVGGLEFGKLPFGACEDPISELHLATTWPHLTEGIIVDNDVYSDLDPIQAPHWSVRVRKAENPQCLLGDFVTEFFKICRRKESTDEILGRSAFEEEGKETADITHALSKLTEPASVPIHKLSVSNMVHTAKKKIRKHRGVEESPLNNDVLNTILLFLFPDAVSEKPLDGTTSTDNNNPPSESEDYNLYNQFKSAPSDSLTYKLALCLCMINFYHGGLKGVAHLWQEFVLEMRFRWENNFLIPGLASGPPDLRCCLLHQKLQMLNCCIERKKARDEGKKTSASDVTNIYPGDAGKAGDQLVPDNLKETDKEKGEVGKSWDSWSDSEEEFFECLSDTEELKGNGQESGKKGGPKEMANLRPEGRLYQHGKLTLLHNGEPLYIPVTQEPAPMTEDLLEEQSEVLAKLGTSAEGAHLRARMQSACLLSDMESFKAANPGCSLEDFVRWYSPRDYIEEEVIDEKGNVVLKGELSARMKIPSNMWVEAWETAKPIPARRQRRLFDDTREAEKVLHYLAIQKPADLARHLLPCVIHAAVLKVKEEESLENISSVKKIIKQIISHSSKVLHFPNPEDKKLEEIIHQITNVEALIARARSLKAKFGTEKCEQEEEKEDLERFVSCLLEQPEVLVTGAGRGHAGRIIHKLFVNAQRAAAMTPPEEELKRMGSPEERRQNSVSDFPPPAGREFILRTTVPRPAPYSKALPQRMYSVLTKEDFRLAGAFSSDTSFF
UniProt P49792, whole entry, looked up: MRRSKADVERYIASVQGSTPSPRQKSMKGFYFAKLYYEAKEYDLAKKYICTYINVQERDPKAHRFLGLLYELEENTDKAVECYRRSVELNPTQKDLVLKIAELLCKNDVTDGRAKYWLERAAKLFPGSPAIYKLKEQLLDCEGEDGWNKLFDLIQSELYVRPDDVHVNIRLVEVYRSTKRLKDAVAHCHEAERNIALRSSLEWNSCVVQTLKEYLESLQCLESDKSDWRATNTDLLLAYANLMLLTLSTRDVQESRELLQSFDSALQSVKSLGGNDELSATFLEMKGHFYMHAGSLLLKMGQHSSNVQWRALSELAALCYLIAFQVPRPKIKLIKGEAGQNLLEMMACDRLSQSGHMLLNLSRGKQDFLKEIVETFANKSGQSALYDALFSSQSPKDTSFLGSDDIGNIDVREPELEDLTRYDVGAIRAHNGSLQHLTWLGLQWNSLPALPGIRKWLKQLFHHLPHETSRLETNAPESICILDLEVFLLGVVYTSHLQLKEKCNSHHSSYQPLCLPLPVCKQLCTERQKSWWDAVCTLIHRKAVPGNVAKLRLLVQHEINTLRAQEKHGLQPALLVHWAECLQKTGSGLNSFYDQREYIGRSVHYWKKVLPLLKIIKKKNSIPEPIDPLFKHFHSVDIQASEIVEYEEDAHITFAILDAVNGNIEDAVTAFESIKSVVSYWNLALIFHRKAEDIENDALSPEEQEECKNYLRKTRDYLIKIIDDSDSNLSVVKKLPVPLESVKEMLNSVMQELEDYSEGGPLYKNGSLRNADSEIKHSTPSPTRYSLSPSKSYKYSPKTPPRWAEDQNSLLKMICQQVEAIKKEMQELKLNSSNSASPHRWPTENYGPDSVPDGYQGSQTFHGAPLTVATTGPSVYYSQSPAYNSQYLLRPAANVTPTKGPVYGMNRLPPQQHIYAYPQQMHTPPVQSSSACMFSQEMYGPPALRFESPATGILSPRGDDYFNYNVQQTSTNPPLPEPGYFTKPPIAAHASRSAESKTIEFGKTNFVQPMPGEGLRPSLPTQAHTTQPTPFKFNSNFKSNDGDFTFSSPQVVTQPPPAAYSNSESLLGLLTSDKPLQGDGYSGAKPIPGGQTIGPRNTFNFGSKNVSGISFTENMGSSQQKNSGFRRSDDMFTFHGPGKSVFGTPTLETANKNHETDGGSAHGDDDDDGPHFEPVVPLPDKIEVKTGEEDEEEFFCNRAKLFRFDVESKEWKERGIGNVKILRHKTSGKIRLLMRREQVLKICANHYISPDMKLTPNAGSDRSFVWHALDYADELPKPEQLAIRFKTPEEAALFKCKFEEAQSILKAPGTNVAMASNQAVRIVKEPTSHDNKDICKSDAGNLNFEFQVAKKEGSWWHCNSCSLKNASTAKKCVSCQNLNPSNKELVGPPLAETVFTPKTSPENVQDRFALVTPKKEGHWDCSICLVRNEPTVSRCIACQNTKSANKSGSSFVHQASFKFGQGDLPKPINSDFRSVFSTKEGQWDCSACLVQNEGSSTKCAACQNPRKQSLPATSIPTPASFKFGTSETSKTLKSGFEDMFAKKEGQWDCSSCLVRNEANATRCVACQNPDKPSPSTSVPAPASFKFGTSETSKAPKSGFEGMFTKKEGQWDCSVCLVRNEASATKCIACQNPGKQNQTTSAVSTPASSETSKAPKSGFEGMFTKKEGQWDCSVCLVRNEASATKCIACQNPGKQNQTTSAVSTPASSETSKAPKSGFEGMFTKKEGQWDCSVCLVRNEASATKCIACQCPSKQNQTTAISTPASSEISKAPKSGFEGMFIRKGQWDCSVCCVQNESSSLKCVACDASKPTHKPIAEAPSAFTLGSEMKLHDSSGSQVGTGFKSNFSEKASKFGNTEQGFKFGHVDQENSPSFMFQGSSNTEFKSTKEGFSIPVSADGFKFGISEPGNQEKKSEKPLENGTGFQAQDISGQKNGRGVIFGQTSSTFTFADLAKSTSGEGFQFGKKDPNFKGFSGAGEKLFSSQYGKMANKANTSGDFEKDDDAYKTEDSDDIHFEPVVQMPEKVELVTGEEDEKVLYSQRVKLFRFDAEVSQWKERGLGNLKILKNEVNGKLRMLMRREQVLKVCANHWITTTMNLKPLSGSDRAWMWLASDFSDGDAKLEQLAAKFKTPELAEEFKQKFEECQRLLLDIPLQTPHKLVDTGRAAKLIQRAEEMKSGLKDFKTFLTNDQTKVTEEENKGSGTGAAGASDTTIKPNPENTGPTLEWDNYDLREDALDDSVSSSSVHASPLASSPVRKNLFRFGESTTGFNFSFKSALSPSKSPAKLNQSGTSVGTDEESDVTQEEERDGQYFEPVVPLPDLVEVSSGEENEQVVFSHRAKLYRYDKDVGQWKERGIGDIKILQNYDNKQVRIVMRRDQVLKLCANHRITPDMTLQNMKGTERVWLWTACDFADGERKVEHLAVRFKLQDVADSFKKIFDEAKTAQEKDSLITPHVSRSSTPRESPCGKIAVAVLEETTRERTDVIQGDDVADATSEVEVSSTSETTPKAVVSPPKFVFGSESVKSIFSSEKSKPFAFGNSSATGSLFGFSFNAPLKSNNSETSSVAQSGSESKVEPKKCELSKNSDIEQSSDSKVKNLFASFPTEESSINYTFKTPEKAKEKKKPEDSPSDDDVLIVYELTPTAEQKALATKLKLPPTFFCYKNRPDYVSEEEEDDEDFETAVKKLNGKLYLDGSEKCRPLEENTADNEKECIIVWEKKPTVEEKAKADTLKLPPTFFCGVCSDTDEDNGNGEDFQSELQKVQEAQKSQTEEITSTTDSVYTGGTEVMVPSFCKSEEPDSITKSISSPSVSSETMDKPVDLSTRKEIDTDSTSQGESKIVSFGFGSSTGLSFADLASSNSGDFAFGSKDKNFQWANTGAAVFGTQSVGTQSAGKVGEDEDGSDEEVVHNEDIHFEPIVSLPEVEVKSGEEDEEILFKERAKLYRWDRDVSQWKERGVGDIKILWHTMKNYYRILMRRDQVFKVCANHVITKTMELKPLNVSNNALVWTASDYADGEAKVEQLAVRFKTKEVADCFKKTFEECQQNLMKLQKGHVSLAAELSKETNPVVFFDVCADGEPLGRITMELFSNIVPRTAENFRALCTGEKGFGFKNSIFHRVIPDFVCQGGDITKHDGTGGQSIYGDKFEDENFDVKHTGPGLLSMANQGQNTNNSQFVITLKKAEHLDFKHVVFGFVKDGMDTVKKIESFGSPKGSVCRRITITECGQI
UniProt Q9ULC3: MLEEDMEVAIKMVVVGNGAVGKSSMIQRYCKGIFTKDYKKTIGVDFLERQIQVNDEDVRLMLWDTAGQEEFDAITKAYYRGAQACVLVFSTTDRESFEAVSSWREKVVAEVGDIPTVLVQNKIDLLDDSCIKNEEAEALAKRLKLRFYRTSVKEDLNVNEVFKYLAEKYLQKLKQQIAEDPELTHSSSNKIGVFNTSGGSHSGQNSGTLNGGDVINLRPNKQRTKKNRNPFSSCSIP
UniProt O43502: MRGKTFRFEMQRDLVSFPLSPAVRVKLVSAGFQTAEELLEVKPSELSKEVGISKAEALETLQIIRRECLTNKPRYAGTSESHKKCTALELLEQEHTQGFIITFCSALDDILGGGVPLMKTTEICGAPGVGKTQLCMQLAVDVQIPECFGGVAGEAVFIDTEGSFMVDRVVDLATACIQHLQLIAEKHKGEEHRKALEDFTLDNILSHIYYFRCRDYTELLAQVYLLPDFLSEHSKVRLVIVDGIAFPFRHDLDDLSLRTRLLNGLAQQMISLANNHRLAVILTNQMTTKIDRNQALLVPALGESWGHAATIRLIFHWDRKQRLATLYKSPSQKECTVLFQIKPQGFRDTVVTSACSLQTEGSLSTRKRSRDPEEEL

Key:
Assay in all cases: log2 fold change, soluble protein after heating vs DMSO (PISA); higher = thermal stabilisation; K562 cells, 10 uM, 30 min; active = over 0.2 and 3.5 SD of the protein, either way, in both replicates (recomputed)
[1] = compound: C1=CC=C(C=C1)[C@H](COC2=CC3=C(C=C2)NC(=O)N3)NC(=O)C4=CC=CN(C4=O)CC5=CC(=C(C=C5)F)F
Summary of the method: (§1)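 K562 cells at 2×10^6 cells/mL were exposed to 10 μM compound for 30 min, then aliquots were heated for 3 min across 48°C-58°C, pooled, and extracted in PBS containing 0.5% NP-40 at 4°C. The supernatant after 21,000xg for 90 min was taken as soluble protein and measured by TMTpro 16plex LC-MS/MS with channel sums equalised. Thermal stability is reported relative to control samples, with values from duplicates. Fold changes are given on a log2 scale.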

[2] = compound: CC1=C(SC2=C1C(=N[C@H](C3=NN=C(N32)C)CC(=O)N)C4=CC=C(C=C4)Cl)C
Summary of the method: as §1

[3] = compound: CC1=C2C(=CC=C1)N=C(N(C2=O)C3=CC=CC=C3C)CN4C=NC5=C(N=CN=C54)N
Summary of the method: as §1

[4] = compound: Cc1sc2c(c1C)C(c1ccc(Cl)cc1)=N[C@@H](CC(=O)OC(C)(C)C)c1nnc(C)n1-2
Summary of the method: as §1

[5] = compound: c1ccc([C@@H]2C[C@H]2NC2CCNCC2)cc1
Summary of the method: as §1

Measured: log2 fold change

RAB13 (UniProt P51153)
inactive: [1] -0.037 | [2] -0.046 | [3] -0.162 | [4] -0.016 | [5] -0.004

RBBP6 (UniProt Q7Z6E9)
inactive: [1] 0.094 | [2] 0.119 | [3] -0.017 | [4] 0.066 | [5] -0.32

RAC3 (UniProt P60763)
inactive: [1] -0.006 | [2] 0.028 | [3] 0.029 | [4] -0.025 | [5] -0.147

RBM17 (UniProt Q96I25)
inactive: [1] -0.038 | [2] 0.017 | [3] 0.049 | [4] 0.003 | [5] -0.013

RBM26 isoform 2 (UniProt Q5T8P6)
inactive: [1] -0.068 | [2] 0.016 | [3] 0.144 | [4] -0.011 | [5] 0.012

RAB3IP (UniProt Q96QF0)
inactive: [1] 0.079 | [2] 0.047 | [3] 0.212 | [4] -0.01 | [5] -0.128

RAB5C isoform 2 (UniProt P51148)
inactive: [1] -0.007 | [2] -0.009 | [3] -0.022 | [4] 0.011 | [5] 0.018

2 entries picked at random from the list so far:
RAB5C isoform 2 (UniProt P51148)
inactive: [1] -0.007 | [2] -0.009 | [3] -0.022 | [4] 0.011 | [5] 0.018

RBBP6 (UniProt Q7Z6E9)
inactive: [1] 0.094 | [2] 0.119 | [3] -0.017 | [4] 0.066 | [5] -0.32

(further entries)

RAB3GAP1 (UniProt Q15042)
inactive: [1] -0.083 | [2] -0.084 | [3] 0.061 | [4] 0.046 | [5] 0.008

RAD50 isoform 2 (UniProt Q92878)
inactive: [1] -0.006 | [2] 0.017 | [3] 0.061 | [4] 0 | [5] 0.014

RAB4B isoform 2 (UniProt P61018)
inactive: [1] 0.029 | [2] 0.04 | [3] 0.027 | [4] -0.064 | [5] -0.003

RAF1 isoform 2 (UniProt P04049)
inactive: [1] -0.08 | [2] 0.201 | [3] 0.222 | [4] -0.07 | [5] -0.105

RAP2C (UniProt Q9Y3L5)
inactive: [1] 0 | [2] 0.055 | [3] -0.012 | [4] 0.038 | [5] -0.011

RANBP2 (UniProt P49792)
inactive: [1] -0.094 | [2] 0 | [3] 0.114 | [4] -0.085 | [5] -0.089

RAB21 (UniProt Q9UL25)
inactive: [1] 0.012 | [2] 0.008 | [3] 0.022 | [4] -0.035 | [5] 0.011

RAB6D (UniProt Q53S08)
inactive: [1] 0.007 | [2] 0.036 | [3] 0.081 | [4] -0.058 | [5] 0.029

RAB23 (UniProt Q9ULC3)
inactive: [1] 0.013 | [2] 0.074 | [3] 0.055 | [4] 0.039 | [5] -0.045

RAB3A (UniProt P20336)
inactive: [1] 0 | [2] -0.013 | [3] 0.094 | [4] -0.059 | [5] 0.021

RAD51C (UniProt O43502)
inactive: [1] -0.032 | [2] 0.133 | [3] 0.064 | [4] 0.015 | [5] -0.065

RAB35 (UniProt Q15286)
inactive: [1] 0.022 | [2] 0.003 | [3] -0.011 | [4] 0.014 | [5] 0.045

RAD51D (UniProt O75771)
inactive: [1] -0.162 | [2] 0.244 | [3] 0.193 | [4] -0.222 | [5] -0.189

RABGAP1L isoform 3 (UniProt Q5R372)
inactive: [1] 0.007 | [2] 0.024 | [3] 0.033 | [4] -0.015 | [5] -0.005

RAP1B (UniProt P61224)
inactive: [1] -0.018 | [2] 0.042 | [3] -0.036 | [4] -0.027 | [5] 0.018

RBM14 (UniProt Q96PK6)
inactive: [1] -0.111 | [2] -0.069 | [3] -0.004 | [4] 0.255 | [5] -0.008

RAD50, A0A494C0Y7
inactive: [1] -0.1 | [2] -0.003 | [3] 0.194 | [4] 0.104 | [5] 0.118
